B1: tRNA (parent)
chain: GUUCCGUUGGCGUAAUGGUAACGCGUCUCCCUCCUAAGGAGAAGACUGCGGGUUCGAGUCCCGUACGGAACG

This sample is rich in variants without activity.

The variants in the data set derive from B1. Description: yeast fitness relative to wild type (ratio to wild type); higher = fitter; tRNA-Arg(CCU), competitive growth, 37 C, YPD. In outline: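 Variants of the tRNA-Arg(CCU) gene, chemically synthesised with a 3% per-site mutation rate at 69 sites, were placed at the native genomic locus in Saccharomyces cerevisiae. The pooled strains were competed in YPD at 37°C for 24 hours in six parallel replicates. Gene amplicons from the start population and from each end population were read by 100-nucleotide paired-end sequencing. Darwinian fitness relative to wild type came from changes in genotype frequencies; genotypes needed ≥ 100 starting reads, and estimates < 0.5 were set to 0.5.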
Turning to GUUCCGUUGGCGUAAUGGUAACCCGUCUCCCUCUUAAGGAGAAGACUGCGGGUUCGAGUCCCGUACGGAACG [G23C C34U], the yeast fitness was no more than 0.5.
For the variant GUUCCGUUGGCGUAAUGGUAACGUGUCUCCAUAUUAAGGAGAAGACUGCGGGUUCGAGUCCCGUACGGAACG [C24U C31A C33A C34U], the yeast fitness is no more than 0.5.
In the case of GUUCCGUUGGCGAAAUGGCUACGCGUCUGCCUGCUAGGGAGAAGACUGUGGGUUCGAGUCCCGUAUGGAACG [U13A U19C A20U C29G C33G A37G C49U C66U], the yeast fitness was determined as 0.601.
As for GUUCCGUUGGCGUAAUGGUAACGCGUGUCCUUCGUAGGGAGAAGACUGCGGGUUCGAGUCCCGUACGGAACG [C27G C31U C34G A37G], the yeast fitness was no more than 0.5.
For GUUCCGUAGGCGUAUUGGUAACGCGUCUCCCUCCUACGGAGAAGAUUGCGGGUUCGAGUCCCGUACCGAACG [U8A A15U A37C C46U G67C], the yeast fitness was no more than 0.5.
For GUUCCGUUAGCGUAAUGGUAACGCGUCUCCCUCCUAAGGAGAAGUCUGCGGGUUCGAGUCCCGUACGGAUCG [G9A A45U A70U], the yeast fitness came to 1.01.
For GUUCCGUUCGCGUAAUGGUAACGCGUCUCUCUCCUAAGGAGAAGACUGCGGGUUGGAGUCCCGUACGGAACG [G9C C30U C55G] the value was no more than 0.5.
As to GUUCCGUUGGGGUAAUGGUCACGCGUCUCCCUCCUAAGGAGAAGGCUGCGGGUUCGAGUCCCGUACGGAACG [C11G A20C A45G], the yeast fitness is no more than 0.5.
Turning to GUUGAGUUGGCGUAAUGGUUACGCGUCUCCCUCCUAAGGAGAAGACUGCGGGUUCGAGUCCCGUACGGCACG [C4G C5A A20U A69C], the yeast fitness is no more than 0.5.
For GUUCCGCUGGCGUAAUGGUAACGCGUCUCCCUCCUAAGGAGGAGACUGCGGGUCCGAGUCCCGUACGGAACG [U7C A42G U54C] the value was 0.549; for GCUCCGUUGGCAUAAUGGUAACGCGUGUCCCUCCUAAGGAGAAGAAUGCGGGUUUGAGUCCCGUACGGAACG [U2C G12A C27G C46A C55U], no more than 0.5.
Regarding GUUCCGUUAGCGUAAAGGUAACGCGUCUUCCUCCUAAGCAGAAGACUGCGGGUCCGAGUCCCGUACGGAACG [G9A U16A C29U G39C U54C], the yeast fitness was no more than 0.5.
In the case of GUUCCGUUGGCGUAAUGGUAACGCGUCUCCGUUCUACGGAGAAGACUGCGGGUUCGAGUCUCGUUCGGAACG [C31G C33U A37C C61U A65U], the yeast fitness was no more than 0.5.
For the variant GUUCCGUUGGCGAAAUCGUAACGCGUCUCCCGCCUAAGGAGCAGACUGCGGGUUCGAGUCCCGUACGGAACG [U13A G17C U32G A42C], the yeast fitness is no more than 0.5.
Turning to GUUCCGUUGGCGUCAUGGUAACACGUCUUCCUCCCAAGGAGAAGACUACGGGUUCGAGUCCCGUACGGAACG [A14C G23A C29U U35C G48A], the yeast fitness was no more than 0.5.
For GUUCCGUUGACGUAAUGGUAACGCGUCUCCCUCUUAGGCAGAAGACUGCGGGUUCGAGUCCCGUACGGAACG [G10A C34U A37G G39C] the value was no more than 0.5; for GUUCCGUUGGCGUAAUGGUAACGCGUCUUCCUCCUAAGGAGAAGACAGCGGGUUGGAGUCCCGUACGGAACG [C29U U47A C55G], no more than 0.5; for GUUCCGUUGGCGUAACGGUAACGCGUCUCCCUCCUAAGGUGAAGACUGCGGGUUCGAGUACCGUACGGAACG [U16C A40U C60A], no more than 0.5.
Next, GUUCGGUUGGCGUAAUGGUAGCGCGUCUCCCUCCUAAGGAGAAGACUGAGGGUCCGAGUCCCGUGCGGAACG [C5G A21G C49A U54C A65G]: no more than 0.5.
GUUCCGUUGGCGUAAUGGUAACGCGUUUCCCUACUAAGGAGAAGACUGGGGGUUCGAGUCCCGUACGGAACG [C27U C33A C49G]: the yeast fitness was no more than 0.5.
Consider GUUCCGUUGGUGUAAUGGUAACGCGUCUCCCUCCUAAGGAGACGACUGCGGGUUCGAGUCCCGUACGAAACG [C11U A43C G68A], for which the yeast fitness is 0.545.
For GUUCCGUUGGCGUAAUAGAAACGCGUCUCGCUCCUAUGGGGAAGACUGCGGGUUCGAGUCCCGUACGGAACG [G17A U19A C30G A37U A40G], the yeast fitness is no more than 0.5.
In the case of GUUCCGUUGGCGUAAUGGUAACGCGUCUCCCUCAUAAGGAGUAGACUGCGUGUUCGAGUCCCGUACGGUACG [C34A A42U G51U A69U], the yeast fitness is no more than 0.5.
As for GUUCCGUUGCCGUAAUGGUAACGCGUCUCCCUCCUAAGGAGGAGACUGCGGGUUCGAGUCCCGUACGGAACG [G10C A42G], the yeast fitness was 0.57.
Take GUUUCGUUGGCGUAAUGGUAACGCGUCUCACUCGUAAGGGGAAGACUGCGGGUUCGAGUCCCGUACGGAACG [C4U C30A C34G A40G]: the yeast fitness is no more than 0.5.
For GUUCCGUUAGCGUAAUGGUAACGCGUCUCCCUCCUAAGGAGAAGACUGCGGGUUCGAGUGCCGUAGGAAACG [G9A C60G C66G G68A] the value was no more than 0.5.
On to GUUCUGUUGGUGUAAUGGUAACGCGUCUCCCUCCUUAGGAGAAGACUGCGGGUUCCAGUCCCGUACGGAACG [C5U C11U A36U G56C], for which the yeast fitness is no more than 0.5.
Turning to GUUCCGUUGGCGUAAUGGUAACGCGUCUCCCUCCAAAGGAAAAGACUGCGGGUUUGAGUCCCGUACGGAACG [U35A G41A C55U], the yeast fitness stood at 0.539.
With GUUCCGUAGGCGUAAUGGUAACGCGUCUCCCUCCUAAGGUGAAGACUGCGGGUUCGAGACCCGUACGGAACG [U8A A40U U59A], the yeast fitness is no more than 0.5.
In the case of GUUACGUUGGCGUAAUAGUAACGGGUCUCCCUCCUAAGGAGAAGACUGCGGGUUCGAGUCCCGUACGCAACG [C4A G17A C24G G68C], the yeast fitness is no more than 0.5.
For GUUCCGUUGGUGUAAUGGUAACGUGUCUACCUCUUAAAGAGAAGACUGCGGGUUCGAGUCUCGUACGGAACG [C11U C24U C29A C34U G38A C61U], the yeast fitness was no more than 0.5.
With GUUCCGUUGGCGUAAUGGUAUCGCGUCUCCCUCCUAUGGAGAAGACUGCGGGUUCGAGUCCCGUACGGAUCG [A21U A37U A70U], the yeast fitness was no more than 0.5.
Take GUUCAGUUGGCGUAAUGGUAACGCGUUUCCCUCCUAUGGAGAAGACUGCGGGUUCGAGUCCCGUACGGAACG [C5A C27U A37U]: the yeast fitness was no more than 0.5.
Regarding GGUUCGUUGGCGUAAUGGUAACGCGUCUCCCUCCUAAGGAGAAGACUGCGGGUUCGCGUCCCGUACGGAACG [U2G C4U A57C], the yeast fitness is no more than 0.5.
Take GUUCCGUUGGCGUAAUGGUUGAGCGUCUCCCUCCUAAGGAGAAGACUGGGGGUUCGAGUCCCGUACGGAACG [A20U A21G C22A C49G]: the yeast fitness is no more than 0.5.
In the case of GUUCCGUUGGUGUAAUGGUAACGCGUCUCACUCCUAAGGAGAUGACAGCGGGUUCGAGUCCAGUACGGAACG [C11U C30A A43U U47A C62A], the yeast fitness was no more than 0.5.
Turning to GUUUCGUUGGCGUAAUGGUAACGCGUAUCCCUCCUCAGGGGAAGACUGCGGGUUCGAGUCCAGUACGGAACG [C4U C27A A36C A40G C62A], the yeast fitness is no more than 0.5.

(Values after the RNAGym collection of RNA variant scans (doi:10.1126/science.aae0568).)
